No constants are given. Whether binding was seen depends on the method and setting. Binding seen in cells or lysates may run through a third protein. These calls come from enrichment with a bait or labelling near it, and not all partners need be listed.
Target: HA-BirA-tagged KINDLIN3 protein (human) (UniProt Q86UX7)
Assay: proximity labelling; BioID: NB4 BirA-KINDLIN3 neutrophils at steady state, 50 uM biotin overnight, lysis in 0.5% NP40 buffer, streptavidin Dynabeads, LC-MS/MS (label-free quantification); compared with NB4 WT with biotin and BirA-KINDLIN3 without biotin

Sequences of proteins named here, by UniProt entry; tags and fusion partners are left off. Residues count along the entry.
UniProt Q86UX7, residues 2-667: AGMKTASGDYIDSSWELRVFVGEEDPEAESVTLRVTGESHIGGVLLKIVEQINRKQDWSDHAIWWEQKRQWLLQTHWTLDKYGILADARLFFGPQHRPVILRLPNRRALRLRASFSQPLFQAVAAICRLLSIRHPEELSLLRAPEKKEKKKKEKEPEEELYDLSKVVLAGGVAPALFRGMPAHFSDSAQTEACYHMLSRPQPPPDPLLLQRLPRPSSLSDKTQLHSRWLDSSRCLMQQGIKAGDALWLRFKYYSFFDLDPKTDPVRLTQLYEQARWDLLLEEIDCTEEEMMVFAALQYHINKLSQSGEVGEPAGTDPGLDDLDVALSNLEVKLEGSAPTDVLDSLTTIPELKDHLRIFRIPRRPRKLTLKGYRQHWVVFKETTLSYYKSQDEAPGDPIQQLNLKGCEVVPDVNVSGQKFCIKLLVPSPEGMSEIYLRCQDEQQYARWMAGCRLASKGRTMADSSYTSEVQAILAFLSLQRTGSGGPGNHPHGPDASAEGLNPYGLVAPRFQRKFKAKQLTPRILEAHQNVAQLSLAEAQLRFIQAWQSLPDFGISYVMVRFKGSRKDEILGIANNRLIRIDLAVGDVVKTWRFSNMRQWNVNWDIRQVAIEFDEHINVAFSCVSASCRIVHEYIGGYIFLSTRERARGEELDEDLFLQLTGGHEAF
UniProt Q9Y490: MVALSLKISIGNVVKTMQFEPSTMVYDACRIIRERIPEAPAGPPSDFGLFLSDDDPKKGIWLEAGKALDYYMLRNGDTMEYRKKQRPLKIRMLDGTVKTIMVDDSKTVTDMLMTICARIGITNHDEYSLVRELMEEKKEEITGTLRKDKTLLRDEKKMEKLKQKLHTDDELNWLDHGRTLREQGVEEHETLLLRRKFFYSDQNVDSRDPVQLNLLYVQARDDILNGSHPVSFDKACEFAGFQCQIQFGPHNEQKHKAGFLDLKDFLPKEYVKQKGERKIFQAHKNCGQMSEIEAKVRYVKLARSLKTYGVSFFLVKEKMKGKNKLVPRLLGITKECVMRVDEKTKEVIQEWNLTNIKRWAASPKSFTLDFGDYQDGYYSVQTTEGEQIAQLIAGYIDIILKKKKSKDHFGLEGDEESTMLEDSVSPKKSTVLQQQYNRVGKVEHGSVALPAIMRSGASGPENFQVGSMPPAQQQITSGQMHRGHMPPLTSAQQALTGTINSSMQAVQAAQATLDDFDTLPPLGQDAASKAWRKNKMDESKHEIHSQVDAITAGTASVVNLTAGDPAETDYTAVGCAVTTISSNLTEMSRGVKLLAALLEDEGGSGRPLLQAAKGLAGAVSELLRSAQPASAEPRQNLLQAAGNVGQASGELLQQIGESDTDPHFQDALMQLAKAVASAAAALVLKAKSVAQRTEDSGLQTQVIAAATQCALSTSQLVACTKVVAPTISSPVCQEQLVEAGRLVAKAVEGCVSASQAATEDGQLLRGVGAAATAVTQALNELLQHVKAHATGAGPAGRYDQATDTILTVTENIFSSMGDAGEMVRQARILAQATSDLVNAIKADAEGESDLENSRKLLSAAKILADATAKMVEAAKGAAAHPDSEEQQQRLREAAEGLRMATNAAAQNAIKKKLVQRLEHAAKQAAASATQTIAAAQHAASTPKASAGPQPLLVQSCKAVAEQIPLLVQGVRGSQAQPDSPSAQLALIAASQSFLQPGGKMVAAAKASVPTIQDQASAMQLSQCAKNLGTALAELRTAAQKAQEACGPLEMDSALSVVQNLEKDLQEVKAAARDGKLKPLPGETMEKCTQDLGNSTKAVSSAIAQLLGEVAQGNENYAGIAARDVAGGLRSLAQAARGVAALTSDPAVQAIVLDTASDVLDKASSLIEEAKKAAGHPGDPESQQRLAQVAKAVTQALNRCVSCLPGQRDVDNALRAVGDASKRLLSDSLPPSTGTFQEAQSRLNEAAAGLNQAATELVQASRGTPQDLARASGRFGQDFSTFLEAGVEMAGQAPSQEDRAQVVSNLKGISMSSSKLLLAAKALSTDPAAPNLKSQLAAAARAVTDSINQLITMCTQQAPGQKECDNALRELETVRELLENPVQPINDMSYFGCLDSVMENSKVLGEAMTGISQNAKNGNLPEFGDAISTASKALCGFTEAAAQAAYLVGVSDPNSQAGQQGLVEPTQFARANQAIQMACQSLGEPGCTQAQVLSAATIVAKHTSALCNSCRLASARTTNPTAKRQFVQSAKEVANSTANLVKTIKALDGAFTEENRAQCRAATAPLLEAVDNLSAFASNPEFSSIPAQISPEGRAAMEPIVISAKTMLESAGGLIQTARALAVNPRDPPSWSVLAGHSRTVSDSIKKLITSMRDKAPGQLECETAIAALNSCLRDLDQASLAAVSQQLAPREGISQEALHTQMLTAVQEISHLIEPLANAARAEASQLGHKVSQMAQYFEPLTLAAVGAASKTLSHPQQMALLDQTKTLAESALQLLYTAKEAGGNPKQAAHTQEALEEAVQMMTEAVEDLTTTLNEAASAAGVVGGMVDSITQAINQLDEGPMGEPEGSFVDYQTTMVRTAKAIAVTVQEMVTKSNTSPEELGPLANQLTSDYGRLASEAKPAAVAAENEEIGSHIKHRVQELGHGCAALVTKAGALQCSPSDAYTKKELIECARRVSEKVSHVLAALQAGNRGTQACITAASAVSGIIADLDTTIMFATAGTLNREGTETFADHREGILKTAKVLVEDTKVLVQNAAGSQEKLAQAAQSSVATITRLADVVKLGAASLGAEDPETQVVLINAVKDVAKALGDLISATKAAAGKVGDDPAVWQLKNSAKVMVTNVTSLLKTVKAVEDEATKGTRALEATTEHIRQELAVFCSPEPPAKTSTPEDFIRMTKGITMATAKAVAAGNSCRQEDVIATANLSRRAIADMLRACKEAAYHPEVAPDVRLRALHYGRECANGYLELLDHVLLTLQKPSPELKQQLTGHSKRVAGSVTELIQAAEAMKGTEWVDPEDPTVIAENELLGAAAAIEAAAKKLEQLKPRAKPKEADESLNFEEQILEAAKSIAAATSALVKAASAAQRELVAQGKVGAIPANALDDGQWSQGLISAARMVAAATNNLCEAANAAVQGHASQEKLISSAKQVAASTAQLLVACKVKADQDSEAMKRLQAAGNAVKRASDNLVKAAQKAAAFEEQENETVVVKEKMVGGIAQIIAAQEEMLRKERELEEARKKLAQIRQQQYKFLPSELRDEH
UniProt Q13418: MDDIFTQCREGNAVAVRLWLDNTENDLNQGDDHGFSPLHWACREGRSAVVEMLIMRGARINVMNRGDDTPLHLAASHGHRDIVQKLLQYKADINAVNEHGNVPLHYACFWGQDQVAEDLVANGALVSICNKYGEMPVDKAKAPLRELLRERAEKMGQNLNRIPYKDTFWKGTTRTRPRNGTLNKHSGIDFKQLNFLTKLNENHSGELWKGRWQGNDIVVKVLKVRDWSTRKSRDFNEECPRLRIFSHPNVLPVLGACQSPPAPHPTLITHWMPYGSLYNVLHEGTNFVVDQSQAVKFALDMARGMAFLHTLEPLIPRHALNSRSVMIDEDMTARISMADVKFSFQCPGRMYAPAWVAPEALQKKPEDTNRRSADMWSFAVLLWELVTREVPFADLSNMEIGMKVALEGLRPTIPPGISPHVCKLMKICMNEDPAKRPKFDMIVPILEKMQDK

Row | Substance | binding
1 | TALIN1 (from UniProt Q9Y490 1-2541) | binds
2 | integrin-linked kinase (ILK) (from UniProt Q13418 1-452) | binds
